Publication PMC7819943, “Rice protein-binding microarrays: a tool to detect cis-acting elements near promoter regions in rice”
The list shows a part of the results.

target: T1, OsSMF1 (Oryza sativa, UniProt Q6ZLB0 1-436); assay: protein-binding microarray (RPBM); PBS, 2% BSA, 51.3 ng/ul salmon testes DNA, 50 uM zinc acetate, 200 nM TF, 25 C, 1 h; high values mean tight binding; settings: protein: recombinant; tags: N-terminal polyhistidine and DsRed monomer fusion (pET32a); chain copies: 2; label: CyDye5-dUTP incorporated in the synthesized complementary strand; 3' TTTTT single-stranded linker to array surface; dsDNA, one strand shown
T1 sequence: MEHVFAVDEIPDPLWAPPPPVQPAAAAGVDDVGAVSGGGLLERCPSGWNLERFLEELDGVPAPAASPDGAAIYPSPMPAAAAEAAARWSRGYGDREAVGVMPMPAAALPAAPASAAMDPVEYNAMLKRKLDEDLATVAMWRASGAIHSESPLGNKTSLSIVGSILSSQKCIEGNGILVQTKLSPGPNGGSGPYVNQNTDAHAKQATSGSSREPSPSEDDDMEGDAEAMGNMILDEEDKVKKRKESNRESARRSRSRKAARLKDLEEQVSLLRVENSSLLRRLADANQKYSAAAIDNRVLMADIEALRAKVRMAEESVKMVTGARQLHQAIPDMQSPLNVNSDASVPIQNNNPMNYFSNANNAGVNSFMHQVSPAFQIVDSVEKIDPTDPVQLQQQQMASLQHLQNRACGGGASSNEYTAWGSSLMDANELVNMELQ
Method in brief: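 Transcription factors were made in E. coli BL21-CodonPlus as N-terminal fusions to a polyhistidine tag and DsRed, then purified on Ni–NTA. After primer extension with Cy5-dUTP and blocking with 2% BSA, a custom Agilent array was exposed for 1 h at 25 °C to 200 nM protein in PBS, 2% BSA, salmon testes DNA and 50 µM zinc acetate. Washed arrays were scanned on an Axon 4000B, and the binding signal is per-feature fluorescence intensity in arbitrary units.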

| Sequence | binding signal |
| --- | --- |
| GGCGGTAGTATATATAGTACGTGTACAACATCGTGAGAGACGGAGTCACCTAGTGCAG | 3240 fluorescence intensity (a.u.) |
| GGGATATGGAAACCACTAATACTAGTCATTTCGTCATGCTCGGAGTCACCTAGTGCAG | 4260 fluorescence intensity (a.u.) |
| GATGTGCATGGCACAAGATATACATAAATCTAAATTGCTGCGGAGTCACCTAGTGCAG | 3220 fluorescence intensity (a.u.) |
| TCATCAAATGACTCTTCTACCCCTCCATTGCCCGGTCTAGCGGAGTCACCTAGTGCAG | 14400 fluorescence intensity (a.u.) |
| CGAAAAGTATTTTAGAACGGGATGGAGTAGTATAATACACCGGAGTCACCTAGTGCAG | 3290 fluorescence intensity (a.u.) |
| AGAGGGAGGAGGGGACTGGGGCGGCGGCTAGGGTTGGGGACGGAGTCACCTAGTGCAG | 5330 fluorescence intensity (a.u.) |
| AATGTCCCATCTTTCGTGTGTAAGGCACGTTAGTCTCAGGCGGAGTCACCTAGTGCAG | 4290 fluorescence intensity (a.u.) |
| GAATAGACTTAATAAATGAACACAAATATATAGATCATTTCGGAGTCACCTAGTGCAG | 24900 fluorescence intensity (a.u.) |
| CCCACATGAGGAGATAAGGCCAGCCGGCTCCCACTTCTCCCGGAGTCACCTAGTGCAG | 11600 fluorescence intensity (a.u.) |
| TCAATCATGAGGACATGGTAATATATTGCTTGTGTTGCTTCGGAGTCACCTAGTGCAG | 3550 fluorescence intensity (a.u.) |
| GTTTGTTGTCGATACAATCACTAGTTGTGTTTGTTAATTTCGGAGTCACCTAGTGCAG | 4170 fluorescence intensity (a.u.) |
| TACCTTGATCGATCGCGAGTAATATCGCATCAGCATTCAACGGAGTCACCTAGTGCAG | 4050 ± 136 fluorescence intensity (a.u.) |
| CCCGTCCATCCCATGCAGCCACACAGGCACGGAGGTGGCACGGAGTCACCTAGTGCAG | 3400 fluorescence intensity (a.u.) |
| AAGCTGACATAGAATAAATTGTTGGCTGTTTGTTTCTCTACGGAGTCACCTAGTGCAG | 3500 fluorescence intensity (a.u.) |
| CGCCCAACCCCAACACATGTACATTTCCCTTGGCTTGCTTCGGAGTCACCTAGTGCAG | 3360 fluorescence intensity (a.u.) |
| TAGTGCTACAGTACCCACGTGTGCTAATGACGGATTAATTCGGAGTCACCTAGTGCAG | 4060 fluorescence intensity (a.u.) |
| CTGTTGTCGCCGTGTCCCCTCCCTTCTTCTCCCTCCCCTTCGGAGTCACCTAGTGCAG | 3450 fluorescence intensity (a.u.) |
| GTTCCGAACGGATATGACTCATTATTCATTATTATCAGGACGGAGTCACCTAGTGCAG | 5170 fluorescence intensity (a.u.) |
| TGTCCAACAACTGGCACACGCCTCGTCTTCTTCCGTGACGCGGAGTCACCTAGTGCAG | 3500 fluorescence intensity (a.u.) |
| TACCGCTTAAAGTAAATATCTTCCTATGGTATTTACGTCGCGGAGTCACCTAGTGCAG | 3580 fluorescence intensity (a.u.) |
| CCTTGAGATTTCGATCGGTATCCACATCACCCCAGGACAACGGAGTCACCTAGTGCAG | 5220 fluorescence intensity (a.u.) |
| CTTTGCGGTGAGGAGACGCGCGCGCATTGGCGCCGCCGTCCGGAGTCACCTAGTGCAG | 3970 fluorescence intensity (a.u.) |
| TGCTCTGCTGCTGCATCCCCGACACGTACGCCCGCATCCGCGGAGTCACCTAGTGCAG | 7200 fluorescence intensity (a.u.) |
| ACACTACCAATAGCTGGTACTTATTCAGCACAATAAGCTACGGAGTCACCTAGTGCAG | 46400 fluorescence intensity (a.u.) |
| TCTCGAGTTTCACCATAAAGGACTTGATGCAGCTCTTTTACGGAGTCACCTAGTGCAG | 3190 fluorescence intensity (a.u.) |
| GTTTCAGGTTGATAAATCCAGTTGTCATCTCACCAACCGTCGGAGTCACCTAGTGCAG | 3500 fluorescence intensity (a.u.) |
| TTTGGCATACCTGGAGCAGATCAGGCAGCACATGGCGAGGCGGAGTCACCTAGTGCAG | 25600 fluorescence intensity (a.u.) |

Part of the list above in another layout:
CCTTGAGATTTCGATCGGTATCCACATCACCCCAGGACAACGGAGTCACCTAGTGCAG
  binding signal = 5220 fluorescence intensity (a.u.)
CTTTGCGGTGAGGAGACGCGCGCGCATTGGCGCCGCCGTCCGGAGTCACCTAGTGCAG
  binding signal = 3970 fluorescence intensity (a.u.)
TGCTCTGCTGCTGCATCCCCGACACGTACGCCCGCATCCGCGGAGTCACCTAGTGCAG
  binding signal = 7200 fluorescence intensity (a.u.)

(further entries)

| Sequence | binding signal |
| --- | --- |
| TGAAATGCTATGTTGGTCCAGACTTCCGCTACGAAGGAGACGGAGTCACCTAGTGCAG | 65100 fluorescence intensity (a.u.) |
| ACAGTAGAGTGGGGTGTGCATATAATATTCATCAATTAGGCGGAGTCACCTAGTGCAG | 3700 fluorescence intensity (a.u.) |
| CTTCCATCTGAGTCGTCCACGTGGCTCCACACGCGTTCCCCGGAGTCACCTAGTGCAG | 8720 fluorescence intensity (a.u.) |
| GGCCACCTAACCCACCACACGTGGCAACCCGCTGAAGGGGCGGAGTCACCTAGTGCAG | 14300 fluorescence intensity (a.u.) |
| GGCGACGCGGAAGAGCTCCCACCGCTGCTTGAACGCCTCGCGGAGTCACCTAGTGCAG | 3640 fluorescence intensity (a.u.) |
| GCGTCCTATAAATACCCTACACGCGTAGCCATCTTCTGCACGGAGTCACCTAGTGCAG | 4430 fluorescence intensity (a.u.) |
| TATATGTGGTGTGTGTAACTACGCCGATGTTATGCAGCTACGGAGTCACCTAGTGCAG | 3370 fluorescence intensity (a.u.) |
| CGGCGACTCACCCCACCCGCGTTGCCGGCCATCAGATCCGCGGAGTCACCTAGTGCAG | 3300 fluorescence intensity (a.u.) |
| AATTTATAATTATATATTATAAGCTTGAATTTATTTATACCGGAGTCACCTAGTGCAG | 35900 fluorescence intensity (a.u.) |
| AACAAACCACATCTGACTGTAAAATATTCAGTCTTCTATTCGGAGTCACCTAGTGCAG | 3420 fluorescence intensity (a.u.) |
| CTGAACGCGTTCGCACGCCACGGCAGCTGCCATGGCCGCCCGGAGTCACCTAGTGCAG | 3340 fluorescence intensity (a.u.) |
| GCGGCGGCGGTGGGTGTCATGCCGGCGAGCACCATGGGCGCGGAGTCACCTAGTGCAG | 3510 fluorescence intensity (a.u.) |
| CTCATCCTCCTCAATCACCGTTCGACTCGCTGCTTCCCCTCGGAGTCACCTAGTGCAG | 3300 fluorescence intensity (a.u.) |
| ACATGGAGTTGGGCCTACTTCTAGACCCATGGTAAACTAACGGAGTCACCTAGTGCAG | 20300 fluorescence intensity (a.u.) |
| CCGTGCGCCGCATCGCGTCACGCCACGCCGCGCGGGCCCGCGGAGTCACCTAGTGCAG | 36200 fluorescence intensity (a.u.) |
| AGGAAAGGTTAATTACGTACGTACACGGGAAGGAGTAACCCGGAGTCACCTAGTGCAG | 3340 fluorescence intensity (a.u.) |
| ATCTAAACACTAGTAGGAAAAGTTGGCAATTTGGTATTTACGGAGTCACCTAGTGCAG | 4420 fluorescence intensity (a.u.) |
| ATGCAAAAGATATATAGGCTTGTTTTACTGAAGGTGGCTTCGGAGTCACCTAGTGCAG | 39100 fluorescence intensity (a.u.) |
| GGCTCCAAATCATCTGCCTTCATTGTCAGGCTTCAGTAATCGGAGTCACCTAGTGCAG | 3660 fluorescence intensity (a.u.) |
| ACACCGTCATCCGCGAGCTCGTCTGCGGCCTCCACGACATCGGAGTCACCTAGTGCAG | 3770 fluorescence intensity (a.u.) |
| TCTTCAAACTTCCAACTTTTCCATCACATCAAAACTTTCCCGGAGTCACCTAGTGCAG | 3340 fluorescence intensity (a.u.) |
| GTCGCTAGCCTGACCAAACCGCCGCCGTTGATGTGCTGCGCGGAGTCACCTAGTGCAG | 3390 fluorescence intensity (a.u.) |
| CGCGCTCTCCGCCGCCCGCGCGCTCCCCAAGGGGCAGCAGCGGAGTCACCTAGTGCAG | 15900 fluorescence intensity (a.u.) |
| TTATTTTGGTCAGTTGAAGTGTGGAAAATGGTGAAAATCTCGGAGTCACCTAGTGCAG | 3880 fluorescence intensity (a.u.) |
| ATAAACCGTTACCGTACATCACCGTGTCATCATCTATCGACGGAGTCACCTAGTGCAG | 5880 fluorescence intensity (a.u.) |
| GCTGCTCCCGACGGCGCCATCGACTCTGCTGATGTCCTCCCGGAGTCACCTAGTGCAG | 3410 fluorescence intensity (a.u.) |
| GTTTTGTGACAGTCGCGTGACCTCGTAGGCTACTACTTGGCGGAGTCACCTAGTGCAG | 3170 fluorescence intensity (a.u.) |
